# Data taken from doi:10.1101/2021.08.11.456030.
# Chains of the proteins cited; added tags and fusions are not shown.
# UniProt O88477: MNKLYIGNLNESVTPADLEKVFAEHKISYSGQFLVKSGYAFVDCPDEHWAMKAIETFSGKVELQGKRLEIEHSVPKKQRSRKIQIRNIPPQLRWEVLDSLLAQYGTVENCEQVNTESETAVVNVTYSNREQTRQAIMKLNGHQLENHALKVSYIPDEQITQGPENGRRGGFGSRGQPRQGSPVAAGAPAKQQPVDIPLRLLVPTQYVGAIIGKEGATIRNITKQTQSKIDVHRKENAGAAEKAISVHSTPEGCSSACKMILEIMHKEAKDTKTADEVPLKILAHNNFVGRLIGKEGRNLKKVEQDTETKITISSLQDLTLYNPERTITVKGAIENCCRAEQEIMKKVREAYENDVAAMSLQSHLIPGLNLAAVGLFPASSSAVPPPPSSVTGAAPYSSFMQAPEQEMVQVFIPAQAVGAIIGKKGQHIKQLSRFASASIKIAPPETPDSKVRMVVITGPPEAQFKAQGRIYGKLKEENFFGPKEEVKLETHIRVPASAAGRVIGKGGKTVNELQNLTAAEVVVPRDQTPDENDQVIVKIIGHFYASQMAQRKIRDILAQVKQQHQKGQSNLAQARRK
# UniProt Q8CJG0: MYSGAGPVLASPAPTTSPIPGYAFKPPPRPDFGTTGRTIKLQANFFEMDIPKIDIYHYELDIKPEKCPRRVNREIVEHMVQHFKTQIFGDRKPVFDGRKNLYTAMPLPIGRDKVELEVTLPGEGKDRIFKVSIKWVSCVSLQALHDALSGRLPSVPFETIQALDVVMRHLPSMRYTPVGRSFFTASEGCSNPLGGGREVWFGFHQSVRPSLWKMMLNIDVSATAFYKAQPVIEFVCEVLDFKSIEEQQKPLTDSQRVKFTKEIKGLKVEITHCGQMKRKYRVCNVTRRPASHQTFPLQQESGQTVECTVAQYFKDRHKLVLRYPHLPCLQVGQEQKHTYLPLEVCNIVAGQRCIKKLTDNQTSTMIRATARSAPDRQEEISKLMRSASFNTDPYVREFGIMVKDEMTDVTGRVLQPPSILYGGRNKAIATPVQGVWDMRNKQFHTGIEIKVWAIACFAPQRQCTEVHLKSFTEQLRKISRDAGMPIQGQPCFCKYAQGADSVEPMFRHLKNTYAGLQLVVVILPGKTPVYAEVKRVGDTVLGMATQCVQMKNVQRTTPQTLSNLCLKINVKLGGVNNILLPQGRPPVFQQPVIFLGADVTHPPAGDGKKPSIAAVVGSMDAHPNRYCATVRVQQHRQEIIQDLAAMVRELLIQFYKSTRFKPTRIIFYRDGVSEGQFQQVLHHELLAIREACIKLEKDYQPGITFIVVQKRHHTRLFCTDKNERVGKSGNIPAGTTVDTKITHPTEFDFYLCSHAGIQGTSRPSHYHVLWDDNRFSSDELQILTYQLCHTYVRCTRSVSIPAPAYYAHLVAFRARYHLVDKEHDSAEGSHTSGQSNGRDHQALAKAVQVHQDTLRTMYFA
# UniProt Q60899: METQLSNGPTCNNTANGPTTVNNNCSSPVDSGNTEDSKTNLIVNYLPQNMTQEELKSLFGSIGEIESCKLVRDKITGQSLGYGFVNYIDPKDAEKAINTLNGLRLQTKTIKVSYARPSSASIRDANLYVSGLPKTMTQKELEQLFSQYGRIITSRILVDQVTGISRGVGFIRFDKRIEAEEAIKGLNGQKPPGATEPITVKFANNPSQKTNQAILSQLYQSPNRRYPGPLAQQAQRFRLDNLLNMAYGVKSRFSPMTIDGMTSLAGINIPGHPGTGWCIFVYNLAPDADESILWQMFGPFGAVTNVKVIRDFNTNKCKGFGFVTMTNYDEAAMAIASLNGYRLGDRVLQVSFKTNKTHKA
# UniProt Q9EPU0: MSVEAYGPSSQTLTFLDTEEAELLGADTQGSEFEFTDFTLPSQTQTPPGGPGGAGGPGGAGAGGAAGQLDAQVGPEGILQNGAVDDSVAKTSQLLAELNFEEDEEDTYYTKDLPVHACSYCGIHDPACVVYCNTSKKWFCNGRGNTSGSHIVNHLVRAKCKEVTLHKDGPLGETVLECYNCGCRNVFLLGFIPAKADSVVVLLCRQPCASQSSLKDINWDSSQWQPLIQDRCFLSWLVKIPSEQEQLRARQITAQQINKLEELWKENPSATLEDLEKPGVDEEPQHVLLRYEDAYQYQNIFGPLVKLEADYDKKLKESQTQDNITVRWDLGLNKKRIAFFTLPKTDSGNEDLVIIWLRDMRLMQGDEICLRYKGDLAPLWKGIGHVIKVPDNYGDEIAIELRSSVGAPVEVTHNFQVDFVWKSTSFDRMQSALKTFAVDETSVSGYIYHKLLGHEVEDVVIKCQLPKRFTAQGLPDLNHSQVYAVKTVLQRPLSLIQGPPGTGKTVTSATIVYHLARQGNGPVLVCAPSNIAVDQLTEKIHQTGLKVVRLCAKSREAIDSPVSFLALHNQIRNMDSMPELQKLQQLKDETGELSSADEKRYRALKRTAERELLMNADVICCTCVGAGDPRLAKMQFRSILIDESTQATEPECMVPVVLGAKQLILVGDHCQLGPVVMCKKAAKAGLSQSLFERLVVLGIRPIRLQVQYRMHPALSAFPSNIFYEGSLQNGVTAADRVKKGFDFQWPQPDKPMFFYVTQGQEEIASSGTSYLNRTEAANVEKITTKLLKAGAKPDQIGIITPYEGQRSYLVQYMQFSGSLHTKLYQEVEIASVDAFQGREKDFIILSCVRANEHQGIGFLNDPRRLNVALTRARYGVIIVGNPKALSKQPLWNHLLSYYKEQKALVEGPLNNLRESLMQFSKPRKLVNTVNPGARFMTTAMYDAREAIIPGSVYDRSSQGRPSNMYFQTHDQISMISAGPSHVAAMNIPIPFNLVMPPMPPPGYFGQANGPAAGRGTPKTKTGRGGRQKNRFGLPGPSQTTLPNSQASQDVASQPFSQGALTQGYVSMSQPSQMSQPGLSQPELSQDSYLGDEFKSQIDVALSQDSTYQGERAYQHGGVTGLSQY
# UniProt P29341: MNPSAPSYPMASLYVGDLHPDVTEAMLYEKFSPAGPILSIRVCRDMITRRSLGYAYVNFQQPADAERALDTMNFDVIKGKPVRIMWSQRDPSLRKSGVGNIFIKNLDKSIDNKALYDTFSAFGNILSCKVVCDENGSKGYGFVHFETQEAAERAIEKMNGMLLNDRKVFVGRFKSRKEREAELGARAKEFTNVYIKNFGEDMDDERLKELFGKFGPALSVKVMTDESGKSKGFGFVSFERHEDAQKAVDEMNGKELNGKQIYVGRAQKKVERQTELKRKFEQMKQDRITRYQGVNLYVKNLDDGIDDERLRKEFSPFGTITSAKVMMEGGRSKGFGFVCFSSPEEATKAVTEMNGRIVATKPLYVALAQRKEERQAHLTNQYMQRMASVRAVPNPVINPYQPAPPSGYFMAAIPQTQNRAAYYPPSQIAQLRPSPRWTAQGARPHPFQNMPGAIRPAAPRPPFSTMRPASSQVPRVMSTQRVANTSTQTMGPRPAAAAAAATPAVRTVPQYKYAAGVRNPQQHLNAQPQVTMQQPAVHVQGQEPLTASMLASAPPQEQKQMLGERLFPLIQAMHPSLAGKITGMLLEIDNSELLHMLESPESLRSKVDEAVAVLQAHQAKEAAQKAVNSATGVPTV
# UniProt P70372: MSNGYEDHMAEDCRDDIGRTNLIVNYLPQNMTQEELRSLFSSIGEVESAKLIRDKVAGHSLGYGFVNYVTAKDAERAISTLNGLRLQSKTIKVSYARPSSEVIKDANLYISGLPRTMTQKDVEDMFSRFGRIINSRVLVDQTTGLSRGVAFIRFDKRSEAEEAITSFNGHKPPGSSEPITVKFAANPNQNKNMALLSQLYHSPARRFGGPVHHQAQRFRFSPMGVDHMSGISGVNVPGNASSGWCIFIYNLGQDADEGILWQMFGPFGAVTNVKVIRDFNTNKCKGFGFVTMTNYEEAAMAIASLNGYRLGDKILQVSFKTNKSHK
# UniProt Q91VC3: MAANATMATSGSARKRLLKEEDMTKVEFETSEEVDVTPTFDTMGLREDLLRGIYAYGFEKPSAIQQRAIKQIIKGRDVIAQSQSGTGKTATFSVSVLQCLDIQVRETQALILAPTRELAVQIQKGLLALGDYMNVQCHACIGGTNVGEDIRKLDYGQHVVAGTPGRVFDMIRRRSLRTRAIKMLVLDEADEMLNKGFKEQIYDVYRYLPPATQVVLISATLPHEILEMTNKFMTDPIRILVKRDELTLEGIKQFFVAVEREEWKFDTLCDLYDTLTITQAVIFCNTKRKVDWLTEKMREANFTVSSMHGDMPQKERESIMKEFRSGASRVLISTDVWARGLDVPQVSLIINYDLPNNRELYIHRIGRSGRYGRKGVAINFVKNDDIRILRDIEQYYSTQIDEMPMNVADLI
# UniProt Q9CPN8: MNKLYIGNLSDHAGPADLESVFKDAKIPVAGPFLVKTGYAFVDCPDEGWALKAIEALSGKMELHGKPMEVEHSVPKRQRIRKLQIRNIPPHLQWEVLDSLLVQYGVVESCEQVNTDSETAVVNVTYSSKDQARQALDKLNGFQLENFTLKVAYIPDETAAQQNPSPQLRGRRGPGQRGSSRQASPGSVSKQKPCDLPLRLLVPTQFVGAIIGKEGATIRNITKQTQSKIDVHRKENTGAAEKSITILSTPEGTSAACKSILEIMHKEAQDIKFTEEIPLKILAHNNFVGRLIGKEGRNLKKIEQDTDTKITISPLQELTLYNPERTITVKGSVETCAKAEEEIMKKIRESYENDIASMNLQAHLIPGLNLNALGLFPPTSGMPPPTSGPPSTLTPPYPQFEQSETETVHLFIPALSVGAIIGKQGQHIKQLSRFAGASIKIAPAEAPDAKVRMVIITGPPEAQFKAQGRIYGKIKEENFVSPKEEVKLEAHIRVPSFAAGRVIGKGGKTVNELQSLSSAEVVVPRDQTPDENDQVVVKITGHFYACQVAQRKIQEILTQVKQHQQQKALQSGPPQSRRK
# UniProt Q5SF07: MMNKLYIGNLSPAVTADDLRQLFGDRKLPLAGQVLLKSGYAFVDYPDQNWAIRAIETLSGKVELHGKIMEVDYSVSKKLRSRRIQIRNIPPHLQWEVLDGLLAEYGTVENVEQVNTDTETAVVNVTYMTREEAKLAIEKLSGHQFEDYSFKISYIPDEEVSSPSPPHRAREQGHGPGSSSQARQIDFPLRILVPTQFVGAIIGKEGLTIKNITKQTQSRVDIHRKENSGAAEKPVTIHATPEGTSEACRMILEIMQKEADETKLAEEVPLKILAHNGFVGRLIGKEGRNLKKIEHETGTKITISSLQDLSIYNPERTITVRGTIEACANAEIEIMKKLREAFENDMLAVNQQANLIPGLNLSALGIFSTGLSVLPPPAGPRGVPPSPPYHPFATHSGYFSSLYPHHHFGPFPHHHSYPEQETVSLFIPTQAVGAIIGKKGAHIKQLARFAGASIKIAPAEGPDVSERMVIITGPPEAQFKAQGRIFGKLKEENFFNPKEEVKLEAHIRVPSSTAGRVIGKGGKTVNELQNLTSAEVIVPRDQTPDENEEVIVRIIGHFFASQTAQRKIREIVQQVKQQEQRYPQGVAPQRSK
# UniProt Q61584: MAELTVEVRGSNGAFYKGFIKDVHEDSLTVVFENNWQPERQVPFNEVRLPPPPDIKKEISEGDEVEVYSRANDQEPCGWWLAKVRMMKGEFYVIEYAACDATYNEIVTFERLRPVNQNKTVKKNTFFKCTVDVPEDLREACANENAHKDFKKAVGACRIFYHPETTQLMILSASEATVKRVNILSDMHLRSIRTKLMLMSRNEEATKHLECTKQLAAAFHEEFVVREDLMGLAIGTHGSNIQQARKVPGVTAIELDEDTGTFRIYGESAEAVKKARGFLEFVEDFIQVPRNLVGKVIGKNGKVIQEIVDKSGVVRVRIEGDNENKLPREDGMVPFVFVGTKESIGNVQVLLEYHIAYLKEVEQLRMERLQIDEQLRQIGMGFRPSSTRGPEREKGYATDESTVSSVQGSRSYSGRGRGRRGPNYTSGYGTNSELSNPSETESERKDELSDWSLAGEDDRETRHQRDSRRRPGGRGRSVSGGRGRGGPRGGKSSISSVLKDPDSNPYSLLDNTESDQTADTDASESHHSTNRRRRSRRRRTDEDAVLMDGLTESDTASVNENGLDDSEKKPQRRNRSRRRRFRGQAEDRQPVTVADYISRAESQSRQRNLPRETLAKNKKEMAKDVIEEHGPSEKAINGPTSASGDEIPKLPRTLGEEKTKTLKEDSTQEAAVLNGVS
# No constants are given. Whether binding was seen depends on the method and setting. Binding seen in cells or lysates may run through a third protein. These calls come from enrichment with a bait or labelling near it, and not all partners need be listed.
# T1: Moloney leukaemia virus 10 homologue (MOV10) (mouse (endogenous in mESCs)) (UniProt P23249)
# T1 sequence: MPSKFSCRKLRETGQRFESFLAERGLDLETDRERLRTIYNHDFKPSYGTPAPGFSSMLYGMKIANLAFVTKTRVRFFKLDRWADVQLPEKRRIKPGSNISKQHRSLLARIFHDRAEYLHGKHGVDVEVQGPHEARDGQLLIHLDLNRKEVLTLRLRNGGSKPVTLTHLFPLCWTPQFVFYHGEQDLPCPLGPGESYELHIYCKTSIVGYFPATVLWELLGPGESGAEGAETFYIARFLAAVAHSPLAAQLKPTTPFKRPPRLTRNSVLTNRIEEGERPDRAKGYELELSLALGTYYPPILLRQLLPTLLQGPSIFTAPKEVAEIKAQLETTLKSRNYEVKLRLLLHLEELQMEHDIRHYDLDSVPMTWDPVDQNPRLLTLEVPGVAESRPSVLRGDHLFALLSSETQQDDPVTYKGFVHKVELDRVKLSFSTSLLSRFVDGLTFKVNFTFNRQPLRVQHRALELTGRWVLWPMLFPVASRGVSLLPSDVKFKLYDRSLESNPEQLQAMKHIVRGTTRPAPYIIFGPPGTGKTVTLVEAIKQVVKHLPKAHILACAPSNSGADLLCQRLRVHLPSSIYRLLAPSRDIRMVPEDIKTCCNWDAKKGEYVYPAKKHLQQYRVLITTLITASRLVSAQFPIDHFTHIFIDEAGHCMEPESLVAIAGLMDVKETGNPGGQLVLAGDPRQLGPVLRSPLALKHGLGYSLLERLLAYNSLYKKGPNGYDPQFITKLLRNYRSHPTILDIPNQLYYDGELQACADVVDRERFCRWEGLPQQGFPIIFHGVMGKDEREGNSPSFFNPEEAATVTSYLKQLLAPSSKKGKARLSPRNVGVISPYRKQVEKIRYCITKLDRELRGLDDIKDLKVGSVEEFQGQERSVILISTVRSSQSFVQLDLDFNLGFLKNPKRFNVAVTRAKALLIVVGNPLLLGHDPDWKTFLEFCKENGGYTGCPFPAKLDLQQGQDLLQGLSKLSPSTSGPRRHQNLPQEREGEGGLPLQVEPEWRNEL
# B1: DHX30 (protein, UniProt Q99PU8 1-1217)
# chain: MVTPVCNSSTWQPKDSSFLSWPEMFSLDSFRKDRTQHRQRQCKLPPPRLPPMCVNPAPGGTITRASRDLLKEFPQPKNLLNSVIGRALGISHAKDKLVYVHTNGPKKKKVTLHIKWPKSVEVEGYGSKKIDAERQAAAAACQLFKGWGLLGPRNELFDAAKYRVLADRFGSPADSWWRPEPTMPPTSWRQLNPENIRPGGPAGLSRSLGREEEEDEEEELEEGTIDVTEFLSMTQQDSHNPLRDSRGGSFEMTDDDSAIRALTQFPLPKNLLAKVIQIATSSSTAKNLMQFHTVGTKTKLATLTLLWPCPMTFVAKGRRKAEAENKAAALACKKLKSLGLVDRNNEPLTHAMYNLASLRELGETQRRPCTIQVPEPILRKIEAFLSHYPVDSSWISPELRLQSDDILPLGKDSGPLSDPITGKPYMPLSEAEEVRLSQSLLELWRRRGPIWQEAPQLPVDPHRDTILSAIEQHPVVVISGDTGCGKTTRIPQLLLERYVTEGRGARCNVIITQPRRISAVSVAQRVSHELGPSLRRNVGFQVRLESKPPARGGALLFCTVGILLRKLQSNPSLEGVSHVIVDEVHERDVNTDFLLILLKGLQRLNPALRLVLMSATGDNERFSRYFGGCPVIKVPGFMYPVKEHYLEDILAKLGKHQYPHRHRHHESEDECALDLDLVTDLVLHIDARGEPGGILCFLPGWQEIKGVQQRLQEALGMHESKYLILPVHSNIPMMDQKAIFQQPPLGVRKIVLATNIAETSITVNDIVHVVDSGLHKEERYDLKTKVSCLETVWVSRANVIQRRGRAGRCQSGFAYHLFPRSRLEKMVPFQVPEILRTPLENLVLQAKIHMPEKTAVEFLSKAVDSPNIKAVDEAVILLQEIGVLDQREYLTTLGQRLAHISTDPRLAKAIVLAAIFRCLHPLLVVVSCLTRDPFSSSLQNRAEVDKVKALLSHDSGSDHLAFVRAVAGWEEVLRWQDRTSRENYLEENLLYAPSLRFIHGLIKQFSENIYEAFLVGKPSDCTLPSAQCNEYSEEEELVKGVLMAGLYPNLIQVRQGKVTRQGKFKPNSVTYRTKSGNILLHKSTINREATRLRSRWLTYFMAVKSNGSVFVRDSSQVHPLAVLLLTDGDVHIRDDGRRATISLSDSDLLRLEGDSRTVRLLREFRRALGRMVERSLRSELAALPLSVQQEHGQLLALLAELLRGPCGSFDMRKTADD
# B2: SF3B1 (protein, UniProt Q99NB9 1-1304)
# chain: MAKIAKTHEDIEAQIREIQGKKAALDEAQGVGLDSTGYYDQEIYGGSDSRFAGYVTSIAATELEDDDDDYSSSTSLLGQKKPGYHAPVALLNDIPQSTEQYDPFAEHRPPKIADREDEYKKHRRTMIISPERLDPFADGGKTPDPKMNARTYMDVMREQHLTKEEREIRQQLAEKAKAGELKVVNGAAASQPPSKRKRRWDQTADQTPGATPKKLSSWDQAETPGHTPSLRWDETPGRAKGSETPGATPGSKIWDPTPSHTPAGAATPGRGDTPGHATPGHGGATSSARKNRWDETPKTERDTPGHGSGWAETPRTDRGGDSIGETPTPGASKRKSRWDETPASQMGGSTPVLTPGKTPIGTPAMNMATPTPGHIMSMTPEQLQAWRWEREIDERNRPLSDEELDAMFPEGYKVLPPPAGYVPIRTPARKLTATPTPLGGMTGFHMQTEDRTMKSVNDQPSGNLPFLKPDDIQYFDKLLVDVDESTLSPEEQKERKIMKLLLKIKNGTPPMRKAALRQITDKAREFGAGPLFNQILPLLMSPTLEDQERHLLVKVIDRILYKLDDLVRPYVHKILVVIEPLLIDEDYYARVEGREIISNLAKAAGLATMISTMRPDIDNMDEYVRNTTARAFAVVASALGIPSLLPFLKAVCKSKKSWQARHTGIKIVQQIAILMGCAILPHLRSLVEIIEHGLVDEQQKVRTISALAIAALAEAATPYGIESFDSVLKPLWKGIRQHRGKGLAAFLKAIGYLIPLMDAEYANYYTREVMLILIREFQSPDEEMKKIVLKVVKQCCGTDGVEANYIKTEILPPFFKHFWQHRMALDRRNYRQLVDTTVELANKVGAAEIISRIVDDLKDEAEQYRKMVMETIEKIMGNLGAADIDHKLEEQLIDGILYAFQEQTTEDSVMLNGFGTVVNALGKRVKPYLPQICGTVLWRLNNKSAKVRQQAADLISRTAVVMKTCQEEKLMGHLGVVLYEYLGEEYPEVLGSILGALKAIVNVIGMHKMTPPIKDLLPRLTPILKNRHEKVQENCIDLVGRIADRGAEYVSAREWMRICFELLELLKAHKKAIRRATVNTFGYIAKAIGPHDVLATLLNNLKVQERQNRVCTTVAIAIVAETCSPFTVLPALMNEYRVPELNVQNGVLKSLSFLFEYIGEMGKDYIYAVTPLLEDALMDRDLVHRQTASAVVQHMSLGVYGFGCEDSLNHLLNYVWPNVFETSPHVIQAVMGALEGLRVAIGPCRMLQYCLQGLFHPARKVRDVYWKIYNSIYIGSQDALIAHYPRIYNDDKNTYIRYDLDYIL
# B3: SF3B3 (protein, UniProt Q921M3 1-1217)
# chain: MFLYNLTLQRATGISFAIHGNFSGTKQQEIVVSRGKILELLRPDPNTGKVHTLLTVEVFGVIRSLMAFRLTGGTKDYIVVGSDSGRIVILEYQPSKNMFEKIHQETFGKSGCRRIVPGQFLAVDPKGRAVMISAIEKQKLVYILNRDAAARLTISSPLEAHKANTLVYHVVGVDVGFENPMFACLEMDYEEADNDPTGEAAANTQQTLTFYELDLGLNHVVRKYSEPLEEHGNFLITVPGGSDGPSGVLICSENYITYKNFGDQPDIRCPIPRRRNDLDDPERGMIFVCSATHKTKSMFFFLAQTEQGDIFKITLETDEDMVTEIRLKYFDTVPVAAAMCVLKTGFLFVASEFGNHYLYQIAHLGDDDEEPEFSSAMPLEEGDTFFFQPRPLKNLVLVDELDSLSPILFCQIADLANEDTPQLYVACGRGPRSSLRVLRHGLEVSEMAVSELPGNPNAVWTVRRHIEDEFDAYIIVSFVNATLVLSIGETVEEVTDSGFLGTTPTLSCSLLGDDALVQVYPDGIRHIRADKRVNEWKTPGKKTIVKCAVNQRQVVIALTGGELVYFEMDPSGQLNEYTERKEMSADVVCMSLANVPPGEQRSRFLAVGLVDNTVRIISLDPSDCLQPLSMQALPAQPESLCIVEMGGTEKQDELGERGSIGFLYLNIGLQNGVLLRTVLDPVTGDLSDTRTRYLGSRPVKLFRVRMQGQEAVLAMSSRSWLSYSYQSRFHLTPLSYETLEFASGFASEQCPEGIVAISTNTLRILALEKLGAVFNQVAFPLQYTPRKFVIHPESNNLIIIETDHNAYTEATKAQRKQQMAEEMVEAAGEDERELAAEMAAAFLNENLPESIFGAPKAGNGQWASVIRVMNPIQGNTLDLVQLEQNEAAFSVAVCRFSNTGEDWYVLVGVAKDLILSPRSVAGGFVYTYKLVNNGEKLEFLHKTPVEEVPAAIAPFQGRVLIGVGKLLRVYDLGKKKLLRKCENKHIANYISGIQTIGHRVIVSDVQESFIWVRYKRNENQLIIFADDTYPRWVTTASLLDYDTVAGADKFGNICVVRLPPNTNDEVDEDPTGNKALWDRGLLNGASQKAEVIMNYHVGETVLSLQKTTLIPGGSESLVYTTLSGGIGILVPFTSHEDHDFFQHVEMHLRSEHPPLCGRDHLSFRSYYFPVKNVIDGDLCEQFNSMEPNKQKNVSEELDRTPPEVSKKLEDIRTRYAF
# Target: T1, Moloney leukaemia virus 10 homologue (MOV10) (mouse (endogenous in mESCs))
# Assay: affinity purification with mass spectrometry
row,Molecule,binding
1,IGF2BP1 (from UniProt O88477 1-577),binds
2,AGO2 (from UniProt Q8CJG0 1-860),binds
3,ELAVL2 (from UniProt Q60899 1-360),binds
4,UPF1 (from UniProt Q9EPU0 1-1124),binds
5,APOBEC3F (mouse (endogenous in mESCs)),binds
6,PABPC1 (from UniProt P29341 1-636),binds
7,ELAVL1 (from UniProt P70372 1-326),binds
8,EIF4A3 (from UniProt Q91VC3 1-411),binds
9,IGF2BP3 (from UniProt Q9CPN8 1-579),binds
10,DHX15 (from UniProt O35286 1-795),binds
11,IGF2BP2 (from UniProt Q5SF07 1-592),binds
12,FXR1 (from UniProt Q61584 1-677),binds
13,DHX9 (from UniProt O70133 1-1380),binds
14,DHX21 (mouse (endogenous in mESCs)),binds
15,U2AF2 (from UniProt P26369 1-475),binds
16,TUT4 (from UniProt B2RX14 1-1644),binds
17,B1,binds
18,B2,binds
19,B3,binds
